PubChem BioAssay AID1259254, NCATS | 2017

- Assay: 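Gene knock-downs that lead to re-replication, shown by excess G2 DNA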 (primary screen)
- System: human HCT116 colorectal cancer cells
- Reagents: single siRNA against human genes
- Time to read-out: 3 days
- Measured: 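Imaged Hoechst DNA stain sorts each cell into a cycle phase by DNA amount; per plate, G2 fraction set to 0% for non-targeting and 100% for GMNN siRNA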
- Direction: G2 robust z-score: higher = more G2 cells, more excess DNA replication
- Hit rule: 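An siRNA counts as active if its G2 robust z-score lies at least 5 MADs above the screen median; here such calls match roughly 38% of GMNN control or more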
Here is one part, drawn at random, of about 59,000 deposited reagents. About 1,550 of them (2.6%) count as active. 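G2 share is only a proxy for re-replication; each gene was hit by three separate siRNAs, and active genes were retested.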 Reagents against one gene are numbered here. Not all columns of the deposit are shown. No sequences are given here. Not stated in the record: the amount of reagent.

gene knocked down | reagent no. | G2 robust z-score | call
S100A6 | 1 | -0.0939 | inactive
S100A6 | 2 | -0.87 | inactive
S100A6 | 3 | -0.843 | inactive
CIMAP1B | 1 | -0.957 | inactive
CIMAP1B | 2 | -0.433 | inactive
CIMAP1B | 3 | 1.8 | inactive
ARLN | 1 | -1.13 | inactive
ARLN | 2 | 2.17 | inactive
ARLN | 3 | -0.819 | inactive
PIGX | 1 | -0.536 | inactive
PIGX | 2 | -0.123 | inactive
PIGX | 3 | 1.4 | inactive
FN3KRP | 1 | -0.831 | inactive
FN3KRP | 2 | -0.845 | inactive
FN3KRP | 3 | -0.691 | inactive
KDM6B | 1 | -0.851 | inactive
KDM6B | 2 | 0.756 | inactive
KDM6B | 3 | 0.344 | inactive
RCBTB2 | 1 | 0.96 | inactive
RCBTB2 | 2 | -0.285 | inactive
RCBTB2 | 3 | 1.02 | inactive
FBLL1 | 1 | 1.11 | inactive
FBLL1 | 2 | -0.39 | inactive
FBLL1 | 3 | -0.944 | inactive
TMEM259 | 1 | -0.645 | inactive
TMEM259 | 2 | -0.718 | inactive
TMEM259 | 3 | 4.58 | inactive
NTN4 | 1 | -0.699 | inactive
NTN4 | 2 | 2.23 | inactive
NTN4 | 3 | -1.04 | inactive
SHISA7 | 1 | 7 | active
SHISA7 | 2 | 0.71 | inactive
SHISA7 | 3 | 1.7 | inactive
PRKACA | 1 | 1.84 | inactive
PRKACA | 2 | -0.107 | inactive
PRKACA | 3 | -0.785 | inactive
ACSL5 | 1 | -1.32 | inactive
ACSL5 | 2 | -1.22 | inactive
ACSL5 | 3 | -0.491 | inactive
IGLV5-39 | 1 | 0.434 | inactive
IGLV5-39 | 2 | 1.63 | inactive
IGLV5-39 | 3 | -0.0131 | inactive
MLANA | 1 | 2.8 | inactive
MLANA | 2 | 0.164 | inactive
MLANA | 3 | 0.167 | inactive
ENOSF1 | 1 | -1.11 | inactive
ENOSF1 | 2 | 2.34 | inactive
ENOSF1 | 3 | 3.34 | inactive
LITAF | 1 | -0.0321 | inactive
LITAF | 2 | 3.08 | inactive
LITAF | 3 | 0.614 | inactive
REX1BD | 1 | -0.379 | inactive
REX1BD | 2 | 2.86 | inactive
REX1BD | 3 | 0.981 | inactive
P2RX3 | 1 | 1.14 | inactive
P2RX3 | 2 | -0.135 | inactive
P2RX3 | 3 | -0.646 | inactive
FAM186B | 1 | 1.24 | inactive
FAM186B | 2 | -1.1 | inactive
FAM186B | 3 | -0.762 | inactive
RPL22P3 | 1 | -0.807 | inactive
RPL22P3 | 2 | -0.701 | inactive
RPL22P3 | 3 | -0.145 | inactive
LINC00938 | 1 | 1.88 | inactive
LINC00938 | 2 | -0.801 | inactive
LINC00938 | 3 | -0.776 | inactive
EYA2 | 1 | -0.805 | inactive
EYA2 | 2 | 1.34 | inactive
EYA2 | 3 | -0.619 | inactive

Records listed above called active:
gene knocked down | reagent no. | G2 robust z-score | call
SHISA7 | 1 | 7 | active
